Values quoted from earlier work as cited in patent US20160193231A1, “RETT SYNDROME AND TREATMENTS THEREFORE” (RETT SYNDROME RESEARCH TRUST, priority 2013, published 2016).

Assays:
cytochrome p450 enzymes = conditions: cited from earlier work
[1] = (mouse/rat); cited from earlier work
[2] = tested on: synthesis in rat microsomes; conditions: cited from earlier work

SMILES: CC(C)c1c(C(=O)Nc2ccccc2)c(-c2ccccc2)c(-c2ccc(F)cc2)n1CC[C@@H](O)C[C@@H](O)CC(=O)O [atorvastatin]
- Metabolized by: (cytochrome p450 enzymes): Cyp3A4
- LD50 (oral): [1]: >5000 mg/kg
- IC50 [2]: ~6 nM
